In patent US20240132498A1, “CRYSTALLINE FORMS OF 5-(3,4-DIFLUOROBENZYL)-8-((1R,4R)-4-METHYLCYCLOHEXYL)-6,9-DIOXO-2,5,8-TRIAZASPIRO[3.5]NONANE-2-CARBALDEHYDE” (Cytokinetics, Incorporated, priority 2022, published 2024):
At least one structure is not confirmed: it was looked up by name or label, or the drawing left a doubt.

Test: Competitive slurry experiments between Form I and Form II
Type: physicochemical
Conditions: 5 °C
Source text: The results of the competitive slurry experiments are provided below in Table 6.

Measured: XRPD

C[C@H]1CC[C@H](N2CC(=O)N(Cc3ccc(F)c(F)c3)C3(CN(C=O)C3)C2=O)CC1 [Forms I and II]
Form II: EtOH/water (15/85 v/v) | EtOH/water (50:50 v/v) | EtOH/water (85:15 v/v)
